Experimental data as given in publication PMC10148843.

The chains behind the UniProt entries cited, without tags or fusion partners. Where a name states a change or a piece, a line headed by the entry shows the natural chain unless it says otherwise.
UniProt Q6R327: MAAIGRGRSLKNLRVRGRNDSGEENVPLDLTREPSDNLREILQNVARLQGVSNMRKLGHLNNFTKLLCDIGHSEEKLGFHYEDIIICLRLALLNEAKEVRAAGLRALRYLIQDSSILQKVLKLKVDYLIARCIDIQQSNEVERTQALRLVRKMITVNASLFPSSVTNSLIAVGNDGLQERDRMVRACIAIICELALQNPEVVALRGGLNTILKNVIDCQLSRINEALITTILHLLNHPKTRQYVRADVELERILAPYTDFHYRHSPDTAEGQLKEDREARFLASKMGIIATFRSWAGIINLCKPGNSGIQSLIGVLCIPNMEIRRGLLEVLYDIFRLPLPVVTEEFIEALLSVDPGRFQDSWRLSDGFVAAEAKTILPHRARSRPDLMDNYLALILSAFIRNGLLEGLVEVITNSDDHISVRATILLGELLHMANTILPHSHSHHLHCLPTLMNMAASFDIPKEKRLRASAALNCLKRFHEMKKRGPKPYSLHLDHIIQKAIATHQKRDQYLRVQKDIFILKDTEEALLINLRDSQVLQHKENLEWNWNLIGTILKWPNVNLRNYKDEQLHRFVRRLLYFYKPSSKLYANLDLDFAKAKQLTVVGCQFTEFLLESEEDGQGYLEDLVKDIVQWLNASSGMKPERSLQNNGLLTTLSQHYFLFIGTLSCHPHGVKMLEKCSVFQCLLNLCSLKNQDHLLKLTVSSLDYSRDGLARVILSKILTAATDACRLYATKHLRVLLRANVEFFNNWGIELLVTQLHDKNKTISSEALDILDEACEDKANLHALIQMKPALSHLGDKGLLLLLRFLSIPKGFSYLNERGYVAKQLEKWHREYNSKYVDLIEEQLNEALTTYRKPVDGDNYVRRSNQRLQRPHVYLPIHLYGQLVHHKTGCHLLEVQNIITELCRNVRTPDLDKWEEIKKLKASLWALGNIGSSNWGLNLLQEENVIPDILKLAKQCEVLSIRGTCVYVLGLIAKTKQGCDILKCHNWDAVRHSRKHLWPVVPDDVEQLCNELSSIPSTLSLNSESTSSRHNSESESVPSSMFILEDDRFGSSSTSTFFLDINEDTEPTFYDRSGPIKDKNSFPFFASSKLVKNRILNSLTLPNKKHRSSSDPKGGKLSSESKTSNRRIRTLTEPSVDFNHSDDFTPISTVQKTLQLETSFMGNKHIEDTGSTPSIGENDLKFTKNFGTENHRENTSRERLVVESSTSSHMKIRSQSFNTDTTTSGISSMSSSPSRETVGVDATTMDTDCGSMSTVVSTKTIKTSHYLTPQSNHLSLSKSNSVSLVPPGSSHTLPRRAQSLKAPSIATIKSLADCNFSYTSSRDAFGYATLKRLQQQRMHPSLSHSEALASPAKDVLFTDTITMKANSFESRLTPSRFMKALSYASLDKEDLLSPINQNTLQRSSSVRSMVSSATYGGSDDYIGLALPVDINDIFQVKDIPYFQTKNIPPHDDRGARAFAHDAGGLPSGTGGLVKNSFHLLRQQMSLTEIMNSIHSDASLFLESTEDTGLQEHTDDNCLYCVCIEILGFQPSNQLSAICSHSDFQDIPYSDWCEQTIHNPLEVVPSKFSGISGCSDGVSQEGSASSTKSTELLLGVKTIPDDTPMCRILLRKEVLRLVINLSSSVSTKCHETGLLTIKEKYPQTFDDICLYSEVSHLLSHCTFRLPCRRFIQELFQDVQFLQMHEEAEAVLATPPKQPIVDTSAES
UniProt P06396: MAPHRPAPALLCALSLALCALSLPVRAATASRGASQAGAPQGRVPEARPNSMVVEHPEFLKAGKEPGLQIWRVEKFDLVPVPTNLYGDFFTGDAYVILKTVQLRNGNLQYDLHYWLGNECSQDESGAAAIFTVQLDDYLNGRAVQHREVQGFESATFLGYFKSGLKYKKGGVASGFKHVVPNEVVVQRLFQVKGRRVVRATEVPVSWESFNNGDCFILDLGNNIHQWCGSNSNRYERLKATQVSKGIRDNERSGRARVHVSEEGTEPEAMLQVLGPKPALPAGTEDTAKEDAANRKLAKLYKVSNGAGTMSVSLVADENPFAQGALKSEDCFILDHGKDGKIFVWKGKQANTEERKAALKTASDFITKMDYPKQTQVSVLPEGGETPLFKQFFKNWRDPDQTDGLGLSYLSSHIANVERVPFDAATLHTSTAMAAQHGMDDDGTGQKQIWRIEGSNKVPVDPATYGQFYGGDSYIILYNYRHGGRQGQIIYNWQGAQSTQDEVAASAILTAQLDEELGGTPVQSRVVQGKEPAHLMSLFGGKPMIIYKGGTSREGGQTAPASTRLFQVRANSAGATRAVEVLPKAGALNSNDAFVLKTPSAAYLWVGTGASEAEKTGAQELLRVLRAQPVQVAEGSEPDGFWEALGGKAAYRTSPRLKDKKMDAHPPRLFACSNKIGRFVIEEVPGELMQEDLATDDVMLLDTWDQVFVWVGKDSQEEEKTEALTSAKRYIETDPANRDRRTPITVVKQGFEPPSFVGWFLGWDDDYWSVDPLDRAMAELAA

Tests used:
[1] = molecular target: RICTOR (human (endogenous in U87MG, DBTRG-05MG, H4, SW1088)) (UniProt Q6R327); assay: co-IP; anti-RICTOR IP from U87MG lysates, western blot; control against siRICTOR; normal, serum activation, AZD8055 and JR-AB2-011 treatment
[2] = molecular target: RICTOR (human (endogenous in U87MG, DBTRG-05MG, H4, SW1088)) (UniProt Q6R327); assay: co-IP; RICTOR IP from lysates of the high-grade lines U87MG and DBTRG-05MG, western blot

gelsolin (GSN) (from UniProt P06396)
binding [1]: binds | binding [2]: binds

Results are given in words; binding and its absence hold for the method and conditions named. Binding seen in cells or lysates may run through a third protein. Binding calls can cover weak binding; strength is not graded here.
